Experimental data taken from US8168391B2, “Method for modulating insulin production” (Burnham Institute for Medical Research, priority 2007, dated 2012).
At least one compound was matched to its structure with a doubt left.

Legend:
[1] = test system: β-cells; assay: Proliferation of islet cells / β-cells; type: cell-based; details: FIG. 23
[2] = test system: insulin promoter; assay: HTS insulin promoter/eGFP reporter screen in T6PNE cells (absence of fatty acid); type: cell-based, human; details: repeat of initial screen with dose response
Procedure: A library of 1000 candidate drug compounds was initially screened using NEPCs cultured in a 384-well HTS format using the following method. NEPCs were infected with promoter/reporter constructs in suspension for 6 hours. The cells were then directly plated on Collagen I coated 384-well microtiter plates in media containing 10% plasma. Monolayer formation was allowed to progress by culture for 4 days with regular media changes. Library compounds were then contacted with the cells and added at a final concentration of 5 μM and incubated for 48 hours. Image analysis was then performed using fluorescent microscopy using DAPI […] and imaging of GFP to determine promoter activation activity of individual compounds. Image analysis algorithms are further refined to eliminate auto-fluorescent debris to accurately quantify green fluorescence. The assays employ a cell line derived from human fetal islet cells ([…]) in which the cells are infected with a promoter/reporter construct. The construct is shown in FIG. 7 and incorporates an insulin promoter operably linked to an eGFP. Cells were infected and plated, and candidate libraries screened and “hit” detected as discussed in Example 1. To differentiate between agents that specifically act to reverse lipotoxicity as compared to generally increasing transcription of insulin a two layer screening approach was utilized. […]

[3] = test system: endogenous expression of insulin; assay: Endogenous expression of insulin in T6PBTE cell line in the presence of a fatty acid; type: cell-based; details: T6PBTE cells, FIG. 4

CC(=O)OCC[N+](C)(C)C [acetylcholine]
proliferation of β-cells [1]: stimulates proliferation of β-cells

COc1cc2c3cc1Oc1c(OC)c(OC)cc4c1[C@@H](Cc1ccc(O)c(c1)Oc1ccc(cc1)C[C@@H]3N(C)CC2)N(C)CC4 [berbamine]
activator of insulin promoter confirmed in confirmatory screen [2]: confirmed

CCCCCCCCCCCCCCCC(=O)O [palmitate]
endogenous expression of insulin [3]: dramatically reduced
